These are yes or no findings as the source states them, for the method shown. Binding seen in cells or lysates may run through a third protein.
What was measured:
[1] = target: T1, OCA-B (POU2AF1), endogenous (human (endogenous in SupT1)) (UniProt Q16633); assay: co-IP; reciprocal co-IP from lysates of parental SupT1 and hOCA* cells; 50 mM Tris pH 7.5, 500 mM NaCl, 0.5 mM EDTA, 1% Triton X-100; anti-Oct1, anti-GATA3 or anti-OCA-B, Protein G Dynabeads, 4°C
T1 sequence: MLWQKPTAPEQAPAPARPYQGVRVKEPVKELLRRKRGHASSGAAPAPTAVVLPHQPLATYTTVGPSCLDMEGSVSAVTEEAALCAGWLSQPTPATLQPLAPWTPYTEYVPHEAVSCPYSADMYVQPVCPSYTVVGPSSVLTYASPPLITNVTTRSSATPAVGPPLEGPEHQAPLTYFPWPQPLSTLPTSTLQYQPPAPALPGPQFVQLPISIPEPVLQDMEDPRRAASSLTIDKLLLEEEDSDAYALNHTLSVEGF

Protein sequences, listed by entry. Tags and fused reporters are not part of them.
UniProt P14859: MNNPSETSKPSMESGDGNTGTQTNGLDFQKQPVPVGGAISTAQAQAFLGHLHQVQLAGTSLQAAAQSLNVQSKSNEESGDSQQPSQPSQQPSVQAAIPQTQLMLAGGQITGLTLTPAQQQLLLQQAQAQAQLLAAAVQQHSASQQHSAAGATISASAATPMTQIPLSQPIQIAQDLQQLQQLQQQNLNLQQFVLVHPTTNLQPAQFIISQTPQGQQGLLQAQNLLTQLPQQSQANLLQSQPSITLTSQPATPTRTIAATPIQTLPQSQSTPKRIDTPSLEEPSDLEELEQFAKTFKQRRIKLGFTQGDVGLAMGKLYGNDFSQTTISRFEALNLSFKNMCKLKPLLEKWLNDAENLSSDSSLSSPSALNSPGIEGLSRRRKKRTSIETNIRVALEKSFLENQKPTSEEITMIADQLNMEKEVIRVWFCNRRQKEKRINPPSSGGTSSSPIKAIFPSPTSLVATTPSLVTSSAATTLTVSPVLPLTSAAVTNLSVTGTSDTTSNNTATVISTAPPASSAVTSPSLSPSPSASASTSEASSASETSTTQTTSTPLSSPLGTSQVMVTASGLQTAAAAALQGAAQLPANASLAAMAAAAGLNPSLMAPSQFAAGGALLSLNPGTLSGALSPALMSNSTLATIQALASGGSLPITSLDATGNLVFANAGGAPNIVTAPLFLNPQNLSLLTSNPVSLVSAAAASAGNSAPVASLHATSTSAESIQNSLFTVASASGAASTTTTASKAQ
UniProt P23771: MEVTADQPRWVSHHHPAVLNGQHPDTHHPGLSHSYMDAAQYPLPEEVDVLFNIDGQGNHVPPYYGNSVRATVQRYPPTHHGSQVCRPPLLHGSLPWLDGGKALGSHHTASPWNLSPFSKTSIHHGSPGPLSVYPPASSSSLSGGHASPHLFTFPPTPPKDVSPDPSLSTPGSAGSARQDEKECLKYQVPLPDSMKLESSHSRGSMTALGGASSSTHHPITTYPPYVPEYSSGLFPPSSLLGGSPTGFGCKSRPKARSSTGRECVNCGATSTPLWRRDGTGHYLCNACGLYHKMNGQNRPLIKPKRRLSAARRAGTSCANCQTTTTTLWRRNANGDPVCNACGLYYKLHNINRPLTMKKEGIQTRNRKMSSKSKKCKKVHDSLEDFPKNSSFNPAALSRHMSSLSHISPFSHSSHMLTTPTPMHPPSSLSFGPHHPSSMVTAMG

[2] = target: Oct1 (POU2F1) (human (endogenous in SupT1)) (UniProt P14859); assay: as above

Substance: GATA3 (from UniProt P23771 1-443)
- binding [1]: no binding
- binding [2]: no binding
